Patent publication US5166205A, “Derivatives of 1-diphenylmethyl piperazine and their use as antihistamines” (Laboratorios Del Dr. Esteve, S. A., priority 1990, dated 1992)

Assay: Sedative action: Irwin Test (passivity, ataxia)
Conditions: rat, i.p., 80 mg/kg

CN(C)CCOC(c1ccccc1)c1ccccc1 [Difenhidramine, reference compound]
Effect: toxic: Toxic
